Results are given in words; binding and its absence hold for the method and conditions named. In cells and extracts the contact can be indirect. Some entries that bind do so weakly or less than the wild type.
Target: Myosin heavy chain 9 (MYH9) (mouse (endogenous in MLE-12)) (UniProt Q8VDD5)
Test: co-IP; cells lysed in RIPA buffer with 1% protease inhibitors; precleared lysate incubated overnight at 4°C with anti-Myh9 or anti-IgG antibody and Protein A sepharose; beads washed 3 times with PBS; Western blot

Chains of the proteins cited; added tags and fusions are not shown.
UniProt Q8VDD5: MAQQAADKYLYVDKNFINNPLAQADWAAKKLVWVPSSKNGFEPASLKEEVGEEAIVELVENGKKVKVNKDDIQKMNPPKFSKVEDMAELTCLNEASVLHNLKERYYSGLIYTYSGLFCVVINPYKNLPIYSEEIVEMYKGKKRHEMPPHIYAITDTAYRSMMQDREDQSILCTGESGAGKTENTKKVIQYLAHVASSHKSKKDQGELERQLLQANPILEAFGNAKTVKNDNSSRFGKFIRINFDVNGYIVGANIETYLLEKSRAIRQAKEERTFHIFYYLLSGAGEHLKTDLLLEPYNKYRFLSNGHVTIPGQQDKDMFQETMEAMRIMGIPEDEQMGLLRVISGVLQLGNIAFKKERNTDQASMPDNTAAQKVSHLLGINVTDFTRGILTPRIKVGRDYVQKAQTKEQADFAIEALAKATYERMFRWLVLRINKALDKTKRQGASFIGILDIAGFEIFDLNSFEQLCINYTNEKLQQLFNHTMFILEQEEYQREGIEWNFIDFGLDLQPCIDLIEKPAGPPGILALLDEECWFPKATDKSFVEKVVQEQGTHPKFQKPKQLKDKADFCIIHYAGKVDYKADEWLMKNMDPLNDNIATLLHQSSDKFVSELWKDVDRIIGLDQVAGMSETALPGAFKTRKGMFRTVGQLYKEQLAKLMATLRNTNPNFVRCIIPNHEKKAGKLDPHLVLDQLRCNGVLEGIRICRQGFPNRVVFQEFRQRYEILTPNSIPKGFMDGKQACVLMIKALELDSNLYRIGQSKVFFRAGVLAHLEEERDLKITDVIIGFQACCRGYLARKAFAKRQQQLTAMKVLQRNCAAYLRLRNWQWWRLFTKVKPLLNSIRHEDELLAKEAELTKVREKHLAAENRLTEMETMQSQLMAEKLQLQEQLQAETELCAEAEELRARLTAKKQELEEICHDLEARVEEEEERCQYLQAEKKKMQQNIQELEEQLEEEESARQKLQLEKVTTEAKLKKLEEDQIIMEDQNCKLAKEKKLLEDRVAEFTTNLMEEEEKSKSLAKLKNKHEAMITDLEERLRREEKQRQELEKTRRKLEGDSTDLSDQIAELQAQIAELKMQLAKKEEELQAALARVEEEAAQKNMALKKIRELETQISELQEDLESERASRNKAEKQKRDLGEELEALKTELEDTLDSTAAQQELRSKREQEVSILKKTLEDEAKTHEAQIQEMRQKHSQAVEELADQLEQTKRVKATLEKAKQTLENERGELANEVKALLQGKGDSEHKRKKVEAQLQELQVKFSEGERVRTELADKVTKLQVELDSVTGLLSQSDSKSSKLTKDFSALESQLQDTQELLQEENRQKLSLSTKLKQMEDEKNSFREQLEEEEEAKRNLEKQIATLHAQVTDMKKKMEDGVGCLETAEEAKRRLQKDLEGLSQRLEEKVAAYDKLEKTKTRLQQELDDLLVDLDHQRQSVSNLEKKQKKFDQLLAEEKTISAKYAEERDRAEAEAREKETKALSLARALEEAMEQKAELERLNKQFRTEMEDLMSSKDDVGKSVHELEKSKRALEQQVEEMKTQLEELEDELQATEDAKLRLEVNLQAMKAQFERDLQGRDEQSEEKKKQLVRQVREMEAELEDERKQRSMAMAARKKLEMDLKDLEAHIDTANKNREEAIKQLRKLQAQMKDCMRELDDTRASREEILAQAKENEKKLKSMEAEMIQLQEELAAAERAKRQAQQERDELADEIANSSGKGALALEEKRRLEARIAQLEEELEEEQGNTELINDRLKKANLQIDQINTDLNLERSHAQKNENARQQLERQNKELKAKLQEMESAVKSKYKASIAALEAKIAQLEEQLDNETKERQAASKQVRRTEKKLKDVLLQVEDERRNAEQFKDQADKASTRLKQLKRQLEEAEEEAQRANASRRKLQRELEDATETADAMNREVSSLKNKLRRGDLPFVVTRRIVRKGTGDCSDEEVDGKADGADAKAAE

B1: osteoclast stimulatory transmembrane protein (OC-STAMP) (protein, UniProt Q9D611 1-498)
chain: MRTIRAATEHLFGLGWKFWRLGICKAVVPLQAAWKAFSQPVPASCNELLTQLLLCVSLASLIAGLAHHWLVSLQLYPLGPPALVTSLCGLFVFLSLGLVPPIRCLFVLSVPTLGSKQGRRLLLSYSAANLAVAVVPNVLGNVRAAGQVLSCVTEGSLESLLNTTYQLRQAARELGPASRAGSRSLTFEVEGKGSAFRLHMHTITQEILEDFSGLEFLARAALGTQRVVTGLFLLGLLGESAWYLHRYLTDLRFDNIYATRQLVRQLAQAGATHLLTSPPPWLLQTAQPKLSREELLSCLLRLGLLALLLVATAVTVASDYGAFLLAQAAVAWAQKLPTVPITLTVKYDASYKVLDFILFVLNQPPVESVFASMQRSFQWELRFTPHDCHLPQAQPPRVTAALAAGALQLLAGATLVLQAYAWRLRHTIAASFFPDQEARRLSHLQARLQRRHNQSDHLNKQPGTMATRESRKPGQGTRTLESQGPQAHDSLGPPYDLE
With B1 the binding was “binds”.

From article PMC8380176
